From PMC6835155, “Lessons from LIMK1 enzymology and their impact on inhibitor design” (Biochemical Journal, 2019)

Sequences of proteins named here, by UniProt entry; tags and fusion partners are left off. Residues count along the entry.
UniProt P53671, 330-632: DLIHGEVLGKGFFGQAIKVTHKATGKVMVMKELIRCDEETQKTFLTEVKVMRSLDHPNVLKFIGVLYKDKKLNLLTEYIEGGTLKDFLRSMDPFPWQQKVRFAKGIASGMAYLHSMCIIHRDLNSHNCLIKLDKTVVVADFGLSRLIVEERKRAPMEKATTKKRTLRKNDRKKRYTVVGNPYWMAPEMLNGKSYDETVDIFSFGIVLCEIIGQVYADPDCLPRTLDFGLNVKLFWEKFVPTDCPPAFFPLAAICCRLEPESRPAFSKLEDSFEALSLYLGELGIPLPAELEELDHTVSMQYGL
UniProt P53667, 330-637: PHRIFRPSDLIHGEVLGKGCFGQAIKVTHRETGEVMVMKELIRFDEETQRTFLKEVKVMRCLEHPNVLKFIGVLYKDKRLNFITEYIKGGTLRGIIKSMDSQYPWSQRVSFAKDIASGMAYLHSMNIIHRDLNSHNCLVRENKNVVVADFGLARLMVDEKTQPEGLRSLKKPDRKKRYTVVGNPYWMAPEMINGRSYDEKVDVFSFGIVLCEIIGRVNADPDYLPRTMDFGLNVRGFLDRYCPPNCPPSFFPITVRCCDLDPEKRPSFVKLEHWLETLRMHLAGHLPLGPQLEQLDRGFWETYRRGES

Experiments:
LIMK2KD = biological target: T1, LIMK2KD (Homo sapiens, UniProt P53671); test: Differential (dynamic) scanning fluorimetry (DSF) assay, LIMK2KD; format: binding; conditions: compound 10 µM, single shot
T1 construct: The cDNA coding for LIMK2 residues 330 to 632 was PCR amplified; His6 (N, cleaved yes); made in house; host or cells: baculovirus; Sf9 for virus, TriEx insect cells for expression

LIMK1KD = biological target: T2, LIMK1KD (Homo sapiens, UniProt P53667); test: Differential (dynamic) scanning fluorimetry (DSF) assay, LIMK1KD; format: binding; conditions: 2 µM LIMK1KD, compound 10 µM, single shot
T2 construct: His6 (N, cleaved yes); made in house; host or cells: baculovirus; Sf9 for virus, TriEx insect cells for expression

TM Shift LIMK2 (K) (LIMK2KD): 3.7 K | TM Shift LIMK1 (K) (LIMK1KD): 2.0 K
SMILES: CC(C)n1nc(-c2cc3cc(O)ccc3[nH]2)c2c(N)ncnc21 [PP242]
